Results are given in words; binding and its absence hold for the method and conditions named. For some assays here: Binding calls can cover weak binding; strength is not graded here. Sequences can lack the tags named with a protein. For some assays here: Binding seen in cells or lysates may run through a third protein. Each block holds one binder with its values, some of them ahead of it.
What was measured:
[1] = target: IhogFn1***:RFP (Ihog with three substitutions in the Fn1 domain that disrupt Hh binding) (Drosophila melanogaster) (UniProt Q9VM64); assay: fluorescence imaging of tissue
[2] = target: IhogΔIg:RFP (Ihog lacking the Ig domains, tagged with RFP) (Drosophila melanogaster) (UniProt Q9VM64); assay: co-IP

By UniProt entry, the sequences of proteins in these tests, tags left out. Where a name states a change or a piece, a line headed by the entry shows the natural chain unless it says otherwise.
UniProt Q9VM64: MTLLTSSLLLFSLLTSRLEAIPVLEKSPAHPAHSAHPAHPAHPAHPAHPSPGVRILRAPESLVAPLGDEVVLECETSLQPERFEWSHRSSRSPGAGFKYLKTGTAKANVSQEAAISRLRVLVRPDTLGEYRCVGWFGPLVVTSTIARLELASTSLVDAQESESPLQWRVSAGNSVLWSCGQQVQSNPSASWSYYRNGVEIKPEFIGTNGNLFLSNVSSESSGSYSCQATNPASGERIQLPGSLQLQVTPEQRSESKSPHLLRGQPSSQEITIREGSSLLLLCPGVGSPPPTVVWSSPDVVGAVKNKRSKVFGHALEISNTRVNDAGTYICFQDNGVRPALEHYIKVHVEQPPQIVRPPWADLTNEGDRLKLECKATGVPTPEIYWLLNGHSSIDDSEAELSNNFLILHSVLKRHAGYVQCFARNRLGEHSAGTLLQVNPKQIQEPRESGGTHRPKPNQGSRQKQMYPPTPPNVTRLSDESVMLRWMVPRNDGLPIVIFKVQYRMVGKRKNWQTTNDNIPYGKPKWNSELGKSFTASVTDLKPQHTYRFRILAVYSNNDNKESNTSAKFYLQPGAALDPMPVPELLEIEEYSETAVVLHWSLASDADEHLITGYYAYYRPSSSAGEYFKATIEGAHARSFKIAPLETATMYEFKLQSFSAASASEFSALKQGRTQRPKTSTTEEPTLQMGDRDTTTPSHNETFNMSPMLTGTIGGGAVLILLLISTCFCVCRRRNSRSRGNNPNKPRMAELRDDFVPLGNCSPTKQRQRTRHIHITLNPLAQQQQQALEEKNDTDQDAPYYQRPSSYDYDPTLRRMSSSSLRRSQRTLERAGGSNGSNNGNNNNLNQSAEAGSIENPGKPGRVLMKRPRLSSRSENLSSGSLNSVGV

binding [1]: binds
B1: Shf:GFP (endogenous Shf tagged with GFP, shfGFP knock-in allele) (protein, UniProt Q9W3W5 31-456)
chain: RQQHHNRNNNNNNRRADSSSSEEGHGNTSDGLDNFADQDASFVGHGHQPRRGQRKKQQGGGGGGSGGGGGNGGGGGSRHNRNEESGISLWINEQQLKMLTALYFPQGYSERLYAIHNSRVTNDLRDTTLYNFLVIPSEVNYVNFTWKSGRRKYFYDFDRLQTMDESILKAPTLSIRKSGRIPQEQKNFSIFLPCTGNSSGTASFNVGLKIQTRHNKPLSGTPIRLNFKKECAHRGVYDIDASNPTSLTTLQECSLKCGKNGYCNEHHICKCNVGYTGQYCETAFCFPQCLNGGNCTAPSVCTCPEGYQGTQCEGGICKDKCLNGGKCIQKDKCQCSKGYYGLRCEYSKCVIPCKNEGRCIGNNLCRCPNGLRGDHCEIGRKQRSICKCRNGTCVSHKHCKCHPGFYGRHCNGRKRRHVHRNDDSKF

binding [2]: no binding
B2: Shf:V5 (wild-type Shifted/DmWif1 tagged with V5) (protein, UniProt Q9W3W5 31-456)
chain: B1 chain

Source: publication doi:10.1101/2025.06.04.657875
